According to patent US20250074896A1, “ARYLTETRAHYDROPYRIDAZINE DERIVATIVE OR SALT THEREOF AND INSECTICIDAL AGENT CONTAINING THE COMPOUND AND METHOD FOR USING SAME” (NIHON NOHYAKU CO., LTD., priority 2021, published 2025):
Some of these results come from one statement about several compounds together.

How the values were obtained:
Format in all cases: in vivo
[1] = test system: Western Flower Thrips (Frankliniella occidentalis); experiment: Insecticidal test on western flower thrips (kidney bean leaf pieces, hatched larvae); details: 4 days after the treatment
[2] = test system: Diamondback moth (Plutella xylostella); experiment: Insecticidal test on diamondback moth (dip treatment of Chinese cabbage seedlings with laid eggs); details: dip about 30 seconds, 6 days after treatment, 25° C.
Description: Insecticidal Test on Diamondback moth (Plutella xylostella)
Adults of diamondback moth were released onto Chinese cabbage seedlings and allowed to lay eggs thereon. At 2 days after the release of the adults, the Chinese cabbage seedlings with laid eggs were dipped for about 30 seconds in agrochemical dispersions diluted to 50 ppm or 500 ppm, each of which contained a different compound represented by the general formula (1) of the present invention as an active ingredient. After air-dried, the seedlings were kept in a thermostatic chamber at 25° C. At 6 days after the dip treatment, the number of surviving larvae per plot was counted, the corrected mortality rate was calculated according to the formula shown below, and the insecticidal efficacy was evaluated according to the criteria shown below. This test was conducted in triplicate using 10 adults of diamondback moth per plot.
• A: the mortality rate is 100%. • B: the mortality rate is 90 to 99%. • C: the mortality rate is 80 to 89%. • D: the mortality rate is 50 to 79%. • E: the mortality rate is 0 to 49%.

[3] = test system: Small Brown Planthopper (Laodelphax striatellus); experiment: Insecticidal test on small brown planthopper (dipped rice seedlings, 3rd-instar larvae); details: rice seedlings dipped 30 seconds, 8 days after inoculation

SMILES	insecticidal efficacy (corrected mortality rate) against western flower thrips ([1]; 50 ppm)	insecticidal efficacy (corrected mortality rate) against western flower thrips ([1]; 500 ppm)	insecticidal efficacy (corrected mortality rate) against diamondback moth ([2]; 50 ppm)	insecticidal efficacy (corrected mortality rate) against diamondback moth ([2]; 500 ppm)	insecticidal efficacy (corrected mortality rate) against small brown planthopper ([3]; 50 ppm)	insecticidal efficacy (corrected mortality rate) against small brown planthopper ([3]; 500 ppm)
O=C(Nc1ccc(F)cc1)C1=C(O)CN(c2ccc(C(F)(F)F)nc2)N(C(=O)N2CCCC2)C1=O [3-99]	A (the mortality rate is 100%)	A (the mortality rate is 100%)	A (the mortality rate is 100%)	A (the mortality rate is 100%)	–	–
CC(C)(C)OC(=O)N1C(=O)C(C(=S)Nc2ccc(F)cc2)=C(O)CN1c1ccc(Br)nc1 [4-25]	A (the mortality rate is 100%)	A (the mortality rate is 100%)	A (the mortality rate is 100%)	A (the mortality rate is 100%)	–	–
N#Cc1ncc(N2CC(O)=C(C(=O)Nc3ccc(F)cn3)C(=O)N2)cc1Cl [1-122]	–	A (the mortality rate is 100%)	–	A (the mortality rate is 100%)	–	–
CSc1ccc(NC(=O)C2=C(O)CN(c3ccc(C#N)nc3)NC2=O)cc1 [1-114]	–	A (the mortality rate is 100%)	–	A (the mortality rate is 100%)	–	–
O=C(Nc1cccc(F)n1)C1=C(O)CN(c2ccc(Br)nc2)NC1=O [1-389]	–	A (the mortality rate is 100%)	–	A (the mortality rate is 100%)	–	–
COC(=O)N1C(=O)C(C(=O)Nc2ccc(F)cn2)=C(O)CN1c1cnc(C#N)c(Cl)c1 [3-168]	–	A (the mortality rate is 100%)	–	A (the mortality rate is 100%)	–	–
CCc1cccc(NC(=O)C2=C(O)CN(c3cnc(C#N)c(Cl)c3)NC2=O)n1 [1-285]	A (the mortality rate is 100%)	A (the mortality rate is 100%)	A (the mortality rate is 100%)	A (the mortality rate is 100%)	–	–
COC(=O)N1C(=O)C(C(=O)Nc2ccc(F)nc2)=C(O)CN1c1cnc(C#N)c(Cl)c1 [3-165]	–	A (the mortality rate is 100%)	–	A (the mortality rate is 100%)	–	–
CC(C)COC(=O)N1C(=O)C(C(=O)Nc2ccc(F)cc2)=C(O)CN1c1ccc(C#N)c(Cl)c1 [3-283]	–	A (the mortality rate is 100%)	A (the mortality rate is 100%)	A (the mortality rate is 100%)	–	–
COC(=O)N1C(=O)C(C(=O)Nc2ccc(F)c(F)c2)=C(O)CN1c1ccc(Cl)cn1 [3-212]	–	A (the mortality rate is 100%)	–	A (the mortality rate is 100%)	–	–
Cc1ccc(NC(=O)C2=C(O)CN(c3ccc(C#N)cn3)NC2=O)nc1 [1-383]	A (the mortality rate is 100%)	A (the mortality rate is 100%)	A (the mortality rate is 100%)	A (the mortality rate is 100%)	–	–
COC(=O)N1C(=O)C(C(=O)Nc2cccc(C)n2)=C(O)CN1c1ccc(Cl)nn1 [3-627]	–	A (the mortality rate is 100%)	–	A (the mortality rate is 100%)	–	–
COc1cc(NC(=O)C2=C(O)CN(c3cnc(C#N)c(Cl)c3)NC2=O)cc(OC)c1 [1-254]	A (the mortality rate is 100%)	A (the mortality rate is 100%)	–	A (the mortality rate is 100%)	–	–
CC(C)(C)OC(=O)N1C(=O)C(C(=S)Nc2ccc(C(F)(F)F)cc2)=C(O)CN1c1ccc(C(F)(F)F)nc1 [4-31]	–	A (the mortality rate is 100%)	–	A (the mortality rate is 100%)	–	–
N#Cc1ccc(N2CC(O)=C(C(=O)NC3CC3)C(=O)N2)cn1 [1-211]	–	A (the mortality rate is 100%)	–	A (the mortality rate is 100%)	–	–
N#Cc1ccc(NC(=O)C2=C(O)CN(c3ccc(Cl)cc3)NC2=O)cc1 [1-21]	A (the mortality rate is 100%)	A (the mortality rate is 100%)	A (the mortality rate is 100%)	A (the mortality rate is 100%)	–	–
O=C(Nc1cc(Cl)ccn1)C1=C(O)CN(c2ccc(Cl)nn2)NC1=O [1-187]	–	A (the mortality rate is 100%)	–	A (the mortality rate is 100%)	–	–
O=C(Nc1ccc(F)c(F)c1)C1=C(O)CN(c2ccc(C3CC3)cc2)NC1=O [1-15]	–	A (the mortality rate is 100%)	A (the mortality rate is 100%)	A (the mortality rate is 100%)	–	–
CCNC(=O)N1C(=O)C(C(=O)Nc2ccc(F)cc2)=C(O)CN1c1ncc(Cl)cn1 [3-44]	A (the mortality rate is 100%)	A (the mortality rate is 100%)	A (the mortality rate is 100%)	A (the mortality rate is 100%)	–	–
N#Cc1ccc(N2CC(O)=C(C(=O)Nc3cc(Cl)ccn3)C(=O)N2)cn1 [1-174]	A (the mortality rate is 100%)	A (the mortality rate is 100%)	–	A (the mortality rate is 100%)	–	–
COC(=O)N1C(=O)C(C(=S)Nc2ccn(C)n2)=C(O)CN1c1ccc(Br)nc1 [4-79]	–	–	A (the mortality rate is 100%)	A (the mortality rate is 100%)	A (the mortality rate is 100%)	A (the mortality rate is 100%)
COc1cc(N2CC(O)=C(C(=O)Nc3ccc(F)nc3)C(=O)N2)ccc1C#N [1-7]	–	–	–	A (the mortality rate is 100%)	A (the mortality rate is 100%)	A (the mortality rate is 100%)
O=C(Nc1ncc(Cl)cn1)C1=C(O)CN(c2ccc(Cl)nc2)NC1=O [1-119]	–	–	–	A (the mortality rate is 100%)	–	A (the mortality rate is 100%)
